# Record: PubChem BioAssay AID1159584 (Peter MacCallum Cancer Centre, 2016)
# Assay: 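Genes that CDH1-null MCF10A cells selectively depend on to survive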 (primary screen)
# System: human MCF10A breast epithelial cells, parental and CDH1-null
# Reagent: siRNA against human genes
# Measurement: 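Cell viability by CellTiter-Glo ATP luminescence, each line scaled to the mean of mock wells across plates, then CDH1-null over parental ratio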
# Reading the numbers: CDH1-null / parental viability ratio: higher = CDH1-null cells survive relatively better than parental; CDH1-null viability vs mock: higher = more viable CDH1-null cells; parental viability vs mock: higher = more viable parental cells
# The whole screen tested about 18,000 reagents; shown is a random part of them. Not given: the amount of reagent, the time to read-out.
The first 8 records as a preview:
target gene,CDH1-null / parental viability ratio,CDH1-null viability vs mock (fraction of mock),parental viability vs mock (fraction of mock)
GRIN2B (glutamate ionotropic receptor NMDA type subunit 2B),1.17,1.22,1.04
CRLS1 (cardiolipin synthase 1),1.14,1.14,1
SGIP1 (SH3GL interacting endocytic adaptor 1),0.84,0.76,0.9
TIMELESS (timeless circadian regulator),1.54,0.57,0.37
IL36R (interleukin 36 receptor),0.94,1.01,1.08
KDM1A (lysine demethylase 1A),0.97,0.74,0.76
LIMCH1 (LIM and calponin homology domains 1),1.11,1.02,0.92
TWNK (twinkle mtDNA helicase),0.96,1.02,1.06

The list itself, from the start:
target gene,CDH1-null / parental viability ratio,CDH1-null viability vs mock (fraction of mock),parental viability vs mock (fraction of mock)
GRIN2B (glutamate ionotropic receptor NMDA type subunit 2B),1.17,1.22,1.04
CRLS1 (cardiolipin synthase 1),1.14,1.14,1
SGIP1 (SH3GL interacting endocytic adaptor 1),0.84,0.76,0.9
TIMELESS (timeless circadian regulator),1.54,0.57,0.37
IL36R (interleukin 36 receptor),0.94,1.01,1.08
KDM1A (lysine demethylase 1A),0.97,0.74,0.76
LIMCH1 (LIM and calponin homology domains 1),1.11,1.02,0.92
TWNK (twinkle mtDNA helicase),0.96,1.02,1.06
TMEM106A (transmembrane protein 106A),1.16,0.8,0.69
TSC22D1 (TSC22 domain family member 1),1.09,0.7,0.64
SCAMP4,1.22,1.12,0.92
CDIPT (CDP-diacylglycerol--inositol 3-phosphatidyltransferase),0.9,0.86,0.96
CUTC (cutC copper transporter),1.05,1.04,0.99
OR52J3 (olfactory receptor family 52 subfamily J member 3),1.04,0.82,0.79
UPB1 (beta-ureidopropionase 1),0.75,0.57,0.76
ANKLE1 (ankyrin repeat and LEM domain containing 1),0.81,0.44,0.54
RAET1E (retinoic acid early transcript 1E),0.98,1.11,1.13
ZNF621 (zinc finger protein 621),1.11,0.98,0.88
IGFBP6 (insulin like growth factor binding protein 6),1.2,0.84,0.7
POU6F2 (POU class 6 homeobox 2),1.09,0.86,0.79
CYP2C19 (cytochrome P450 family 2 subfamily C member 19),0.88,0.78,0.89
SLC25A12,1.11,0.94,0.85
CAP1 (cyclase associated actin cytoskeleton regulatory protein 1),0.91,0.8,0.88
SPATA1 (spermatogenesis associated 1),1.12,0.84,0.75
ELOVL6 (ELOVL fatty acid elongase 6),1.01,1,0.99
CD79B (CD79b molecule),1.03,0.97,0.94
SELP (selectin P),0.78,0.5,0.64
OC90 (otoconin 90),0.99,0.83,0.84
SEPSECS,0.94,0.62,0.66
CCDC38 (coiled-coil domain containing 38),0.9,0.7,0.78
SLC25A24,0.9,0.82,0.91
LSR (lipolysis stimulated lipoprotein receptor),1,0.68,0.68
BLOC1S5 (biogenesis of lysosomal organelles complex 1 subunit 5),0.86,0.62,0.72
USP38 (ubiquitin specific peptidase 38),1.28,0.77,0.6
MRFAP1L1 (Morf4 family associated protein 1 like 1),0.86,0.83,0.97
BAIAP2L2 (BAR/IMD domain containing adaptor protein 2 like 2),0.96,0.78,0.81
SGSM3 (small G protein signaling modulator 3),1.23,1.08,0.88
"CORIN (corin, serine peptidase)",1.07,0.88,0.82
MSANTD4 (Myb/SANT DNA binding domain containing 4 with coiled-coils),0.84,1.02,1.22
PPIG (peptidylprolyl isomerase G),0.92,0.77,0.84
LRRTM2 (leucine rich repeat transmembrane neuronal 2),1.08,0.8,0.74
MTNR1A (melatonin receptor 1A),1.29,0.9,0.7
RNASEL (ribonuclease L),0.96,0.92,0.96
DUSP6 (dual specificity phosphatase 6),1.23,0.65,0.53
SLC49A4,0.76,0.74,0.98
PYGL (glycogen phosphorylase L),1.17,0.95,0.81
USH2A (usherin),0.67,0.42,0.63
EPGN (epithelial mitogen),1.43,1.16,0.81
SEPHS2 (selenophosphate synthetase 2),0.95,1.08,1.14
CHD6 (chromodomain helicase DNA binding protein 6),1,0.86,0.86
XPNPEP1 (X-prolyl aminopeptidase 1),1.13,0.97,0.86
SLC17A9,1.1,0.44,0.4
COPB1 (coat protein complex I subunit beta 1),0.8,0.28,0.35
CCER1 (coiled-coil glutamate rich protein 1),1,1,1
AMBRA1 (autophagy and beclin 1 regulator 1),0.76,0.74,0.98
COLEC10 (collectin subfamily member 10),0.84,0.38,0.45
MGST3 (microsomal glutathione S-transferase 3),1.11,1.09,0.98
KLK15 (kallikrein related peptidase 15),1.04,0.81,0.78
INO80D (INO80 complex subunit D),0.94,1.02,1.08
ADORA1 (adenosine A1 receptor),0.75,0.64,0.85
SS18L2 (SS18 like 2),0.84,0.54,0.64
SIN3A (SIN3 transcription regulator family member A),0.83,0.78,0.94
PDE4B (phosphodiesterase 4B),1.09,0.94,0.86
HERC4 (HECT and RLD domain containing E3 ubiquitin protein ligase 4),1.22,0.84,0.69
LARP4 (La ribonucleoprotein 4),0.8,0.76,0.95
ACBD5 (acyl-CoA binding domain containing 5),1.46,0.67,0.46
CYP4X1 (cytochrome P450 family 4 subfamily X member 1),0.88,0.77,0.88
LRRC8C (leucine rich repeat containing 8 VRAC subunit C),0.71,0.55,0.77
